Measured values as given in patent US6573282B1 (priority 1995, dated 2003).

System: formalin-induced nociception
Experiment: Formalin-induced flinching (early and late/tonic phase), intrapaw injection
Assay type: in vivo, rat

## CN1CC[C@]23c4c5ccc(O)c4O[C@H]2[C@@H](O)C=C[C@H]3[C@H]1C5.O=S(=O)(O)O [morphine, morphine sulfate]
  Formalin-Induced Flinching (Late Phase) % Maximal Efficacy: 83%
  Formalin-Induced Flinching (Late Phase) ED50: 72 μg i. paw
